Earlier results on one molecule are cited in US20240228463A1, “SODIUM CHANNEL INHIBITORS AND METHODS OF DESIGNING SAME” (Genentech, Inc., priority 2021, published 2024).

For the data set the following is noted: administered topically (Lidoderm patch); cited from earlier work.

For the molecule `CCN(CC)CC(=O)Nc1c(C)cccc1C` [lidocaine], the plasma concentrations result is “about 1 μM”.
